Measurements: patent US11786543B2, “Compositions comprising decitabine and tetrahydrouridine and uses thereof” (The Board of Trustees of the University of Illinois, priority 2008, dated 2023)
For part of these data: At least one compound was matched to its structure with a doubt left. Some of these results come from one statement about several compounds together.

Legend:
[1] = in vivo; cited from earlier work
[2] = test system: Reno-1 renal cell cancer xenograft; conditions: mouse, in vivo
Protocol: In an effort to apply the proposed formulation and regimen to treat different cancer histologies, a renal cell cancer cell-line (Reno-1) was developed from a surgical sample of renal cancer and used in a xeno-transplantation experiment. […] The percentage of necrosis in each tissue section was evaluated in a blinded fashion.

| Compound | exposure in rodents versus humans, dose for dose [1] | effect of combination with decitabine on tumor volume [2] | sensitivity of the tumor to standard agents [2] |
| --- | --- | --- | --- |
| Nc1ncn([C@H]2C[C@H](O)[C@@H](CO)O2)c(=O)n1 [Decitabine, 5-aza-2′-deoxycytidine] | more than 100 fold |  |  |
| CCN(CC)CCNC(=O)c1c(C)[nH]c(/C=C2\C(=O)Nc3ccc(F)cc32)c1C [Sunitinib] |  | antagonized the effect of decitabine | relatively resistant |
